{"sequences": {"note": "The chains behind the UniProt entries cited, without tags or fusion partners. Residues count along the entry.", "UniProt P06213, residues 28-1382": "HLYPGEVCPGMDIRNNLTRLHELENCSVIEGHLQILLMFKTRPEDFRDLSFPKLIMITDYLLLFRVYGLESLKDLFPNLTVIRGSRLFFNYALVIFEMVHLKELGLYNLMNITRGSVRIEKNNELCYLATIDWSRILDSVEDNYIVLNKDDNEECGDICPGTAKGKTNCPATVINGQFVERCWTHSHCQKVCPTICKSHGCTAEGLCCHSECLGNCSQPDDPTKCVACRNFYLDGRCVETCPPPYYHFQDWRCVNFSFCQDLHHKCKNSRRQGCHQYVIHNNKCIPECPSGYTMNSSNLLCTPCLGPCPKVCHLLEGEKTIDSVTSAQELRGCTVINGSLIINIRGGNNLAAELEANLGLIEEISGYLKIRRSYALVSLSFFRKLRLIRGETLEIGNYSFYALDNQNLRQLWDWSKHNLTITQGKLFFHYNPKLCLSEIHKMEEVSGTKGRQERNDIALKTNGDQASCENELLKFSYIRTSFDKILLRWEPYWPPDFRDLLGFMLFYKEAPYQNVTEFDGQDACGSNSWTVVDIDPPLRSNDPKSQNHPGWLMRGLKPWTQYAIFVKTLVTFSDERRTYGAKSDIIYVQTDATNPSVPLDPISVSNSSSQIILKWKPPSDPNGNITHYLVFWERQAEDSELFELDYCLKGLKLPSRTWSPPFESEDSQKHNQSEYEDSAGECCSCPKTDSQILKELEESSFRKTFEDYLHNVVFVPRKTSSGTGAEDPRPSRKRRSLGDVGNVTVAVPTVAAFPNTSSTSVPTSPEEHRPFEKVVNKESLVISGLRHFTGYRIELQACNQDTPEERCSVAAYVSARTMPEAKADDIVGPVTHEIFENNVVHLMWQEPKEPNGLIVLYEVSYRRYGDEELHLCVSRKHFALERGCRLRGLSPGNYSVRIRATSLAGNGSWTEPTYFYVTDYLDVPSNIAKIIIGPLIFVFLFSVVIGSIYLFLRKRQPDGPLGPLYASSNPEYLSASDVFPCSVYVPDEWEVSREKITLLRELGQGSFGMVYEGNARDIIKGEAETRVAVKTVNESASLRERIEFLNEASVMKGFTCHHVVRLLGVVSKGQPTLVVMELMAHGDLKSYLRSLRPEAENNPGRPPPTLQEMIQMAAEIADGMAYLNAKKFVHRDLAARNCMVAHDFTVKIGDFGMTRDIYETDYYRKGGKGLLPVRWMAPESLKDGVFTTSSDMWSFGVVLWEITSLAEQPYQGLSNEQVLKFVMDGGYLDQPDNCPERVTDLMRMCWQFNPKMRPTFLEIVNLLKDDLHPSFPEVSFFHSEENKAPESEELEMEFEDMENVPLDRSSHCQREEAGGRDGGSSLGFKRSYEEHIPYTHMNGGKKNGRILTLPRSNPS", "UniProt Q03135": "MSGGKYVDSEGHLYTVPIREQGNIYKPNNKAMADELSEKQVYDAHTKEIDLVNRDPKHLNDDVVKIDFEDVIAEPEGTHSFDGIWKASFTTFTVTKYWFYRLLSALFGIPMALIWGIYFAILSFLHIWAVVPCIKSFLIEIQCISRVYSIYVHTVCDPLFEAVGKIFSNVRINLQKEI", "UniProt Q9ULV4": "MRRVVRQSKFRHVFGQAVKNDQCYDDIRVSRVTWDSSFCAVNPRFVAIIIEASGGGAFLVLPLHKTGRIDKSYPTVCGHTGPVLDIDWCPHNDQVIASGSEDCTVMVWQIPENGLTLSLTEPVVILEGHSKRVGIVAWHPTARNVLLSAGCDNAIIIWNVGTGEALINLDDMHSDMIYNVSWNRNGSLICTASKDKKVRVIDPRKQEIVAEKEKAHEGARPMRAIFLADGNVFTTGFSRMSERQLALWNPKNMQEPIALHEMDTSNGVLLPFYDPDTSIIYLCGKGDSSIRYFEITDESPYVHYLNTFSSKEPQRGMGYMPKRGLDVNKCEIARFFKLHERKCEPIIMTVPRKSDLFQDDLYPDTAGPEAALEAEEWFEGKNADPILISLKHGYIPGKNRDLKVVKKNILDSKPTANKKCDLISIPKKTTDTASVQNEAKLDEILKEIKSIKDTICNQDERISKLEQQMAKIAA", "UniProt O14980": "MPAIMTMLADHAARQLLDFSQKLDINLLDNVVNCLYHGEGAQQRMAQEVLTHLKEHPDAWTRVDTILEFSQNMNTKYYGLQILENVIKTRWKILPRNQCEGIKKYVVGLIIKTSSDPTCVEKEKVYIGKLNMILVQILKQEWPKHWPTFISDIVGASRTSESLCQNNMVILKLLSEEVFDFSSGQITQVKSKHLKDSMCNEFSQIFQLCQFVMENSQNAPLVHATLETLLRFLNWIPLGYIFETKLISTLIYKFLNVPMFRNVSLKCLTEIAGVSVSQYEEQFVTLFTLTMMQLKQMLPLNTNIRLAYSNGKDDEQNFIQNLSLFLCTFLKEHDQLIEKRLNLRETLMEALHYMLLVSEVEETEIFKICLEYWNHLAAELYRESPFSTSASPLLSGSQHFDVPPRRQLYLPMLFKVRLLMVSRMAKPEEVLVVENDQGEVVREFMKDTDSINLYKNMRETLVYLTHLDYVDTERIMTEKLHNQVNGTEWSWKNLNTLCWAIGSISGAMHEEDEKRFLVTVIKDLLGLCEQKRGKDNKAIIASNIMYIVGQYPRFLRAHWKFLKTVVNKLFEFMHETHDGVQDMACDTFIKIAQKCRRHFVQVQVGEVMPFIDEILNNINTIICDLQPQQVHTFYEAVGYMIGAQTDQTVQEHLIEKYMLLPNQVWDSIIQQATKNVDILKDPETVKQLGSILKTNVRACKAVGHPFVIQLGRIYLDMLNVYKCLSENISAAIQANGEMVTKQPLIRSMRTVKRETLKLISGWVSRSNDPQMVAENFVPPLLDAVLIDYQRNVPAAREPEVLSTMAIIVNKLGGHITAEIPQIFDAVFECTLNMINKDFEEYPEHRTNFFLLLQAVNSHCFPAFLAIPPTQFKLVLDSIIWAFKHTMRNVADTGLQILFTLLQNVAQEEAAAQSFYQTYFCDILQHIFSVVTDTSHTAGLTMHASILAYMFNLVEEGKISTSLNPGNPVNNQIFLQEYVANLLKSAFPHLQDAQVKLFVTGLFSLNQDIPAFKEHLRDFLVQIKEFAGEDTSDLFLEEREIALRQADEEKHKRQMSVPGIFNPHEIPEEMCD", "UniProt Q9Y4B5": "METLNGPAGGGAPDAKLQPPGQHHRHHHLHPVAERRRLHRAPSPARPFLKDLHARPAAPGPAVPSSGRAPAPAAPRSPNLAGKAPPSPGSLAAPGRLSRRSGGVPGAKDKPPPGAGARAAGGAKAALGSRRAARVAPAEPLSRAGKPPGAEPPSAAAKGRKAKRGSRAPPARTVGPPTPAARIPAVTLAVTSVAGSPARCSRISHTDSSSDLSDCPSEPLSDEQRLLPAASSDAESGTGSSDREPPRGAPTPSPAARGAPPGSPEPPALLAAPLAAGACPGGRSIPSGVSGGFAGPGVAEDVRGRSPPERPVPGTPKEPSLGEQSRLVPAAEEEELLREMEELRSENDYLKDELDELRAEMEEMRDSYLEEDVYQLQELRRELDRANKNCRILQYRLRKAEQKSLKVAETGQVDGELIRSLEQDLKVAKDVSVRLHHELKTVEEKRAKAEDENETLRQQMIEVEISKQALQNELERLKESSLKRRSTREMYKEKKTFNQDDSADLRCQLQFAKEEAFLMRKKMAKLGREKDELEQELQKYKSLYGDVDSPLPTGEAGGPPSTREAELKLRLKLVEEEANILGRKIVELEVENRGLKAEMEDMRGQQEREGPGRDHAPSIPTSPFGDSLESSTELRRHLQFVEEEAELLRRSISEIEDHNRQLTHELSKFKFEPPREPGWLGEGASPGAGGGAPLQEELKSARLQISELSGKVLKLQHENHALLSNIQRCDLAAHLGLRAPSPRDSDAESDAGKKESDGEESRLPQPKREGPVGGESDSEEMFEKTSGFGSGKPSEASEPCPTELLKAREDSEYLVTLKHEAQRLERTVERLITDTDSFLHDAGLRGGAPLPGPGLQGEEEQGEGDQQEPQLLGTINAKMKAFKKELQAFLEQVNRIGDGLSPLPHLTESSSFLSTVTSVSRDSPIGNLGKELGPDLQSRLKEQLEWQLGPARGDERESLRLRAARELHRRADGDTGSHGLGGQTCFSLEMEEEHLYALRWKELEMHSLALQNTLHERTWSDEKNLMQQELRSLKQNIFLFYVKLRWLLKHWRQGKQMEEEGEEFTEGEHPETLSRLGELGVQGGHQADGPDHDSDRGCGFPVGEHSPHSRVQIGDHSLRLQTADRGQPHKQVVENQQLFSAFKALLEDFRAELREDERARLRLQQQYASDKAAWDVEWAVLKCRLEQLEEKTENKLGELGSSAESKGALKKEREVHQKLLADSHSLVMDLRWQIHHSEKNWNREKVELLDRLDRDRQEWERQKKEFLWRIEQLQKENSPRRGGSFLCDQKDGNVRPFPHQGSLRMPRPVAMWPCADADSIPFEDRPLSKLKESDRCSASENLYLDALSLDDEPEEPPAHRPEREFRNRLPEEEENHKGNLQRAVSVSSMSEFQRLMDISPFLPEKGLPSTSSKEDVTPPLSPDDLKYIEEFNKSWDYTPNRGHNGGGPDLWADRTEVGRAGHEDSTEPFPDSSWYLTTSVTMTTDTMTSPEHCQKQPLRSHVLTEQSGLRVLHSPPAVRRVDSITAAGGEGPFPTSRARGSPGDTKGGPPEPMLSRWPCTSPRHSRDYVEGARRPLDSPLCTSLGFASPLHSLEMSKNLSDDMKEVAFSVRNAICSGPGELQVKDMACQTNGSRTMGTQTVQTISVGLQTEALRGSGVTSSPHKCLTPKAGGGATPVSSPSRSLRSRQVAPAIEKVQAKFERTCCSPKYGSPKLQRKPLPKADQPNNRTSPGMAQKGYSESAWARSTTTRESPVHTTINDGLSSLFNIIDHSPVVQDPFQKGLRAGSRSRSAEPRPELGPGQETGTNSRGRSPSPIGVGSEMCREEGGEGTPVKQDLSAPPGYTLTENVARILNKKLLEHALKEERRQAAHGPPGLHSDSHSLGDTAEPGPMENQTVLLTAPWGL", "UniProt O95292": "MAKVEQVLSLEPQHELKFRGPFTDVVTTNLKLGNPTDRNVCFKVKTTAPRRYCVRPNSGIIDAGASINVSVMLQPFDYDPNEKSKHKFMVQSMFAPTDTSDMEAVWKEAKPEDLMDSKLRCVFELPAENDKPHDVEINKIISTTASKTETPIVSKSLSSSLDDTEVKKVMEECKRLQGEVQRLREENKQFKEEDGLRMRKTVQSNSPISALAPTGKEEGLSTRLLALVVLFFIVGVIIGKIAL"}, "source": "paper PMC7788524", "molecules": {"B1": {"name": "PTPN1 (enzyme, UniProt P18031 1-435)", "chain": "MEMEKEFEQIDKSGSWAAIYQDIRHEASDFPCRVAKLPKNKNRNRYRDVSPFDHSRIKLHQEDNDYINASLIKMEEAQRSYILTQGPLPNTCGHFWEMVWEQKSRGVVMLNRVMEKGSLKCAQYWPQKEEKEMIFEDTNLKLTLISEDIKSYYTVRQLELENLTTQETREILHFHYTTWPDFGVPESPASFLNFLFKVRESGSLSPEHGPVVVHCSAGIGRSGTFCLADTCLLLMDKRKDPSSVDIKKVLLEMRKFRMGLIQTADQLRFSYLAVIEGAKFIMGDSSVQDQWKELSHEDLEPPPEHIPPPPRPPKRILEPHNGKCREFFPNHQWVKEETQEDKDCPIKEEKGSPLNAAPYGIESMSQDTEVRSRVVGGSLRGAQAASPAKGEPSLPEKDEDHALSYWKPFLVNMCVATVLTAGAYLCYRFLFNSNT"}, "B2": {"name": "doublecortin domain-containing protein 2 (DCDC2) (protein, UniProt Q9UHG0 1-476)", "chain": "MSGSSARSSHLSQPVVKSVLVYRNGDPFYAGRRVVIHEKKVSSFEVFLKEVTGGVQAPFGAVRNIYTPRTGHRIRKLDQIQSGGNYVAGGQEAFKKLNYLDIGEIKKRPMEVVNTEVKPVIHSRINVSARFRKPLQEPCTIFLIANGDLINPASRLLIPRKTLNQWDHVLQMVTEKITLRSGAVHRLYTLEGKLVESGAELENGQFYVAVGRDKFKKLPYSELLFDKSTMRRPFGQKASSLPPIVGSRKSKGSGNDRHSKSTVGSSDNSSPQPLKRKGKKEDVNSEKLTKLKQNVKLKNSQETIPNSDEGIFKAGAERSETRGAAEVQEDEDTQVEVPVDQRPAEIVDEEEDGEKANKDAEQKEDFSGMNGDLEEEGGREATDAPEQVEEILDHSEQQARPARVNGGTDEENGEELQQVNNELQLVLDKERKSQGAGSGQDEADVDPQRPPRPEVKITSPEENENNQQNKDYAAVA"}}, "key": {"[1]": {"target": "human insulin receptor (INSR) overexpressed in immortalised human podocytes (hWT-IR) (human) (UniProt P06213)", "assay": "affinity purification with mass spectrometry; INSR precipitated (anti-INSR beta CT-1 on protein G Dynabeads) from hWT-IR human podocyte lysate at 0, 2, 7 and 15 minutes of 100 nM insulin; in-gel digestion, label-free LC-MS/MS"}, "[2]": {"target": "human insulin receptor (INSR) overexpressed in immortalised human podocytes (hWT-IR) (human) (UniProt P06213)", "assay": "affinity purification with mass spectrometry; INSR precipitated (anti-INSR beta CT-1 on protein G Dynabeads) from hWT-IR human podocyte lysate at 0, 2, 7 and 15 minutes of 100 nM insulin; in-gel digestion, label-free LC-MS/MS", "remark": "listed apart in the source"}}, "note": "Read-outs that look alike come from different tables or passages of the source. No constants are given. Whether binding was seen depends on the method and setting. In cells and extracts the contact can be indirect. These calls come from enrichment with a bait or labelling near it, and not all partners need be listed.", "data": [{"molecule": "CAV1 (from UniProt Q03135 1-178)", "values": [{"measurement": "binding", "setting": "[1]", "value": "binds"}]}, {"molecule": "Coronin-1C (from UniProt Q9ULV4 1-474)", "values": [{"measurement": "binding", "setting": "[1]", "value": "binds"}]}, {"molecule": "Exportin-1 (from UniProt O14980 1-1071)", "values": [{"measurement": "binding", "setting": "[1]", "value": "binds"}]}, {"molecule": "MTCL1 (from UniProt Q9Y4B5 1-1905)", "values": [{"measurement": "binding", "setting": "[1]", "value": "binds"}]}, {"molecule": "VPS13A (from UniProt Q96RL7 1-3174)", "values": [{"measurement": "binding", "setting": "[1]", "value": "binds"}]}, {"molecule": "Vesicle-associated membrane protein-associated protein B (from UniProt O95292 1-243)", "values": [{"measurement": "binding", "setting": "[1]", "value": "binds"}]}, {"molecule": "B1", "values": [{"measurement": "binding", "setting": "[2]", "value": "binds"}]}, {"molecule": "B2", "values": [{"measurement": "binding", "setting": "[2]", "value": "binds"}]}]}
